# Library screen at single concentrations

Measurements from “University of Dundee, Small-Polar-MMV Screening Library” (2021), ChEMBL document CHEMBL3988442.

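Growth of Mycobacterium tuberculosis over 4 days (cholesterol / DPPC medium with tyloxapol); the read-out is not stated. Tested at 50 µM. Direction is inferred from retests: higher values go with more growth inhibition. Of about 69,000 compounds tested this way, about 370 (0.54%) reached 50% or more in at least one test.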

The filed quantity is “Percent Effect” (%).
How 0% and 100% were set is not recorded. Most values in the screen are low, and negative values occur.
The compounds are a random part of those screened.
Two or more numbers in one place are separate tests of the same structure; such repeats can differ widely.

* [H][C@@]12CCCO[C@]1([H])[C@H](NC(=O)N(C)C)CN2S(C)(=O)=O | -19.64%
* Cl.O=C(NCC1CCC2(CCNCC2)CO1)c1ccno1 (stereo not given) | 9.465%
* Cn1[nH]c(CNc2cccc(Cl)c2)nc1=O | -4.397%
* CN1CCCCC1c1ccc(-n2ccnc2)nc1 (stereo not given) | 2.647%
* Cc1cc(C)n(CC2CCCN2C(=O)CCCNc2ncccn2)n1 (stereo not given) | -5.965%
* O=C(NCCN1CCCCC1)c1ccoc1 | -24.01%
* CN1CCC2(CC1)CN(C(=O)c1ccncc1)Cc1ccccc12 | 9.35%
* Cn1cc(C2COC3(CCN(C(=O)c4ccsc4)CC3)C2)cn1 (stereo not given) | -9.95% and 10.42%
* O=C(NC1(c2nnn(Cc3ccncc3)n2)CCCC1)c1ccccc1 | -8.109%
* CCOc1ccc(N(CCC#N)C(=O)c2ccc(OC)nc2)cc1 | -13.4%
* [H][C@@]12CCN(C(=O)C3CCC3)[C@]1([H])C(=O)N(c1ccc(F)cc1)C(=O)N2 | -70.97%
* CC(C)N(C)S(=O)(=O)N(C)Cc1cnn(Cc2ccccc2)c1 | -3.984%
* CCC(=O)N1CCN(C(=O)NC2CCc3ccccc3C2)CC1 (stereo not given) | -4.779%
* CC(Oc1cccc(Cl)c1)C(=O)Nc1cnn(CCN(C)C)c1 (stereo not given) | -2.249%
* Cc1ccc(CN2CC[C@@H](NS(C)(=O)=O)[C@@H]2Cc2ccncc2)o1.O=C(O)C(F)(F)F.O=C(O)C(F)(F)F | 7.638%
* CSCC[C@@H](CO)Nc1ccc(-c2nc(C3CC3)no2)cn1 | 5.72% and -5.755%
* c1ccc(-n2nnnc2CNCc2ccc3c(c2)OCCO3)cc1 | 23.51%
* N#CCCN1CC(O)CN(C(=O)c2cccc(C(F)(F)F)c2)CC1=O (stereo not given) | -5.539%
* Cl.O=C(Nc1ccc(F)cc1)C(c1ccccc1)N1CCOCC1 (stereo not given) | -1.364% and -3.435%
* CC(C)(C)c1noc(OCC(=O)NC2CCCC2)n1 | 14.23%
* [H][C@@]12C[C@@H](O)C[C@]1([H])CN(Cc1cc(C(C)(C)C)ccc1OCC(=O)O)C2 | -1.15% and 1.277%
* Cc1cc(C)c2c(N3CCC(O)(Cn4ccnc4)CC3)ncnc2n1 | -8.253%
* CCOCC1CN(Cc2cccnc2)Cc2nn(C)cc21.O=C(O)C(F)(F)F.O=C(O)C(F)(F)F (stereo not given) | -4.847%
* CCNC(=O)[C@@H]1CN(Cc2ccccc2)C[C@H]1C(=O)c1ccc(F)cc1 | -1.902% and -10.16%
* CCn1cc(CN2CCCC(c3[nH]ncc3S(C)(=O)=O)C2)cn1 (stereo not given) | -9.32%
* Cc1cccnc1C(Nc1nccc(C2CCCC2)n1)C1CC1 (stereo not given) | -1.037% and 6.852%
* NCCCC(=O)NCC1(O)CCCN(c2ccnc3cccnc23)C1 (stereo not given) | -1.042% and -7.198%
* Cc1nccn1-c1cc(CNC(=O)CCNC(=O)C2CCCC2)ccn1 | -19.78%
* CC(C)C(=O)NCC(=O)NCC1CCN(c2cnn(C)c(=O)c2)CC1 | -6.35% and -4.215%
* O=C(CCC1CCN(C2CSCCSC2)CC1)NCC1CCCO1 (stereo not given) | 18.45%
* O=C(c1sccc1C1CC1)N1CCN(c2cnccn2)CC1 | -9.213%
* O=C(O)C(F)(F)F.[H][C@@]12CCN(Cc3ccco3)[C@@]1([H])CCC(=O)N2 | 0.7562%
* c1ncn(CC2CCCN2Cc2csc(C3CCCCC3)n2)n1 (stereo not given) | 6.69%
* [H][C@@]12CN(C(=O)c3ccccc3C)C[C@]1([H])[C@H]2CN(C)CCc1ccccn1 | 6.701%
* CS(=O)(=O)c1ccc(NC(=O)NCc2ccc(F)cc2)cn1 | 10.56%
* N#Cc1ccc(OCCNc2cccc(C(=O)N3CCOCC3)c2)cc1 | -7.936%
* CC(C)Nc1cccc(C(=O)NCC(O)c2cccc(F)c2)c1 (stereo not given) | -13.82%
* O=S(=O)(c1ccc(Cl)cc1)N1CCC(OCc2ccccn2)C1 (stereo not given) | 21.35%
* CN(C)c1ncc(-c2cc(C(=O)NC(C)(C)CO)n(CC3CC3)c2)cn1 | 11.88%
* CC(O)C1CCN(Cc2cnc3c(-c4ccccc4)cnn3c2)CC1 (stereo not given) | -11.25%
* COC(=O)[C@@H]1CN(C(=O)NC(C)C)CCN1S(=O)(=O)c1ccccc1 | 5.387%
* Cc1n[nH]c(C)c1C1COCCN1C(=O)c1cccc(F)c1F (stereo not given) | -0.6393%
* Cc1ccccc1-c1noc(CN2CCc3cncnc3C2)n1 | -4.127%
* CN(Cc1ccccc1)CC(O)Cn1cnc2c(cnn2C)c1=O (stereo not given) | 18.58%
* CN(Cc1nc(Cc2cccc(C(F)(F)F)c2)no1)C(C1CC1)C1CC1 | 18.66%
* CSc1sc2c(O)cc(=O)[nH]c2c1C(N)=O | 1.331%
* CCOCc1nc(N2CCOCC2)sc1C(=O)NCc1ccco1 | 23.53%
* CCOCC(=O)N1CCc2nc(C)nc(NC(C)C)c2CC1 | -12.85%
* COc1ccc(-c2cc3nc(CCNC(=O)CN(C)C)nn3cn2)cc1 | -8.422% and 9.973%
* COc1ccc(F)cc1CN(CC(N)=O)C(C)C | -35.23%
* COc1ccc2ncn(Cc3ncc[nH]3)c(=O)c2c1 | -3.69%
* Cc1cnc(NC2CCN(CC(=O)Nc3ccccc3)CC2)nc1C | 1.774% and 1.5%
* Cc1cnn(CC2CCCCN2c2ncnc3ccccc23)c1 (stereo not given) | -0.3986%
* C=Cn1ncc(CN2CCc3nc(-c4ccncc4)nc(O)c3C2)c1C | -11.45%
* O=C1NCc2ccccc2CC12CCN(Cc1ccncc1Cl)C2 (stereo not given) | 2.201%
* O=C(NC1CCC1)C1=NOC2(CCN(Cc3ccccc3)C2)C1 (stereo not given) | -7.609%
* O=S(=O)(NC1=NCN(CCc2cccs2)CN1)c1ccc(Cl)cc1 | -19.59%
* CC(C)c1nn(CC(=O)N2CCCC2)c(=O)c2c1cnn2C(C)(C)C | -7.986%
* [H][C@@]12CCN(C(=O)c3ccsc3)C[C@]1(c1nc(C)no1)CCO2 | 14.53%

4 of the entries, repeated:

* CS(=O)(=O)c1ccc(NC(=O)NCc2ccc(F)cc2)cn1 : 10.56%
* CN(Cc1nc(Cc2cccc(C(F)(F)F)c2)no1)C(C1CC1)C1CC1 : 18.66%
* CC(C)(C)c1noc(OCC(=O)NC2CCCC2)n1 : 14.23%
* Cc1cccnc1C(Nc1nccc(C2CCCC2)n1)C1CC1 (stereo not given) : -1.037% and 6.852%